The assay addresses Annexin A2 (human (endogenous in CNE2(R743))) (UniProt P07355). The assay is described as follows: affinity purification with mass spectrometry; Co-IP (Pierce Co-Immunoprecipitation Kit) from sonicated lysate of log-phase CNE2(R743) cells in PBS with 1 mM PMSF; enriched ANXA2-interacting proteins separated by SDS-PAGE, bands identified by MALDI-TOF-MS (Mascot, NCBInr); hits analysed in the STRING database.

Chains of the proteins cited; added tags and fusions are not shown.
UniProt P07355: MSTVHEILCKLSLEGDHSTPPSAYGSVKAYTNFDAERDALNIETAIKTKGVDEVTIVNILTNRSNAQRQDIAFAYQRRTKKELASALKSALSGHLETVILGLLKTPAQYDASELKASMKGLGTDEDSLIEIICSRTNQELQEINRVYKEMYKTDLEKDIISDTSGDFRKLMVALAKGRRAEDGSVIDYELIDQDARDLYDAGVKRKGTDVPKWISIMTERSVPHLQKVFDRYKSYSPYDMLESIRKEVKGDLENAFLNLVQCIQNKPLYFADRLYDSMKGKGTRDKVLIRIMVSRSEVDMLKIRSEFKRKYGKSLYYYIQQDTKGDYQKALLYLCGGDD
UniProt P04792: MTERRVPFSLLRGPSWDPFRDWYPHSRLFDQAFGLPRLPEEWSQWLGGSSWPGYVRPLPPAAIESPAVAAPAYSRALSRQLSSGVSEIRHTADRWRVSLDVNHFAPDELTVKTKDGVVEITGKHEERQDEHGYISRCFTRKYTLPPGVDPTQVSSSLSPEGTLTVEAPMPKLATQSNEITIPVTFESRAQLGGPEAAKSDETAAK
UniProt P08670: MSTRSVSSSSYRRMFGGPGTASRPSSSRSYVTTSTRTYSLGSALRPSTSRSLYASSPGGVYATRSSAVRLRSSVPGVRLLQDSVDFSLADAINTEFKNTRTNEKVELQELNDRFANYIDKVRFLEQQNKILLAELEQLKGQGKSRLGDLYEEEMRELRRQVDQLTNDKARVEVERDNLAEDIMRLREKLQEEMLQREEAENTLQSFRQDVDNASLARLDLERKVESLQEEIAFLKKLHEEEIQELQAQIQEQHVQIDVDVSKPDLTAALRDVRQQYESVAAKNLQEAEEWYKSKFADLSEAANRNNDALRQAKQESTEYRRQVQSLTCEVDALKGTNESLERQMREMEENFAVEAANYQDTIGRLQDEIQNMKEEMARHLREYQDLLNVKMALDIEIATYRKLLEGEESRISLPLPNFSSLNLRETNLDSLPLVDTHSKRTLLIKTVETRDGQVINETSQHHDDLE

Results are given in words; binding and its absence hold for the method and conditions named. In cells and extracts the contact can be indirect. A yes stands for co-enrichment or nearness to the bait. Other partners may have been found.

With HSP27 (from UniProt P04792 1-205), the binding result is on record as “binds”.
In the case of Vimentin (from UniProt P08670 1-466) it was “binds”.

The values are drawn from publication PMC8968728.
